Measurements from patent US20140113288A1 (ACADEMIA SINICA, published 2014).

Target: T1, HtrA4mt-FLAG (human, UniProt P83105 32-476, limits assumed)
T1 construct: Used instead of wild-type HtrA4-FLAG in pull-downs to prevent cleavage of the GST fusion proteins; also called protease-dead HtrA4 mutant; not shown: C-terminal FLAG tag
T1 sequence (looked up): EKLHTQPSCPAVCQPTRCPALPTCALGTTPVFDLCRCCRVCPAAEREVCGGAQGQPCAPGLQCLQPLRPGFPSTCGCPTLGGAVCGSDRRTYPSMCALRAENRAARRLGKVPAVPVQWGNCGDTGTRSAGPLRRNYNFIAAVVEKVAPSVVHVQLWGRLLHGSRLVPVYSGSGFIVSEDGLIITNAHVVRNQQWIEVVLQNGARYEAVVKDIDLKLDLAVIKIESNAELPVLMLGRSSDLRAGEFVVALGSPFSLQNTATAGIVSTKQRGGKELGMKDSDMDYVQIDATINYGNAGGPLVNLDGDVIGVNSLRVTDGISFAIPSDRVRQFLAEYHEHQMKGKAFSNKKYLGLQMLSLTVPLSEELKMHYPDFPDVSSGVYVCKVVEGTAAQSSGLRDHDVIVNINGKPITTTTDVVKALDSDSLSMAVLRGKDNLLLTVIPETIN
Experiment: GST pull-down, immunoblot with FLAG mAb
Procedure: The GST fusion proteins GST-SU and GST-TM, which contain the SU and the TM subunits of syncytin-1, respectively, were prepared in E. coli using the pGEX6P-1 vector (GE Healthcare, Piscataway, N.J.). Recombinant HtrA4-FLAG and HtrA4mt-FLAG proteins were prepared in a vaccinia virus expression system. […] Cleavage of ECM protein by HtrA4 was performed by incubation of fibronectin (Calbiochem, La Jolla, Calif.) and HtrA4-FLAG or HtrA4mt-FLAG at 37° C. for 16 h, followed by immunoblotting with fibronectin Ab (Sigma). Pull-down experiments were performed by incubation of GST-SU- or GST-TM-preloaded glutathione agarose beads with HtrA4mt-FLAG to identify the interaction domain in syncytin-1 for HtrA4. Likewise, GST-SU-preloaded glutathione agarose beads were incubated with HtrA4mt-FLAG or HtrA4mt[…]PDZ-FLAG to identify the interaction domain in HtrA4 for syncytin-1. HtrA4mt-FLAG, instead of wild-type HtrA4-FLAG, was used in the pull-down experiments to prevent cleavage of the GST fusion proteins.

B1: GST-TM (other, human, UniProt Q9UQF0 318-538, looked up)
chain: VPILPFVIGAGVLGALGTGIGGITTSTQFYYKLSQELNGDMERVADSLVTLQDQLNSLAAVVLQNRRALDLLTAERGGTCLFLGEECCYYVNQSGIVTEKVKEIRDRIQRRAEELRNTGPWGLLSQWMPWILPFLGPLAAIILLLLFGPCIFNLLVNFVSSRIEAVKLQMEPKMQSKTKIYRRPLDRPASPRSDVNDIKGTPPEEISAAQPLLRPNSAGSS
notes: domain: TM subunit; Made in E. coli, loaded on glutathione agarose beads as bait; also called GST fusion protein harboring the TM subunit of syncytin-1; not shown: glutathione S-transferase (GST) of the pGEX6P-1 vector; linker not described
Does B1 bind?
Result: no binding
